From patent US10035818B2 (Bayer Pharma Aktiengesellschaft, priority 2011, dated 2018)

Experiment: general procedure: Fmoc solid-phase peptide synthesis; Tentagel based Rink amide resin; TBTU/DIEA
Conditions: conjugation step, of theory

Substance	conjugation yield [%]
O-{[(3 S)-3-Amino-4-({(2R)-1-amino-3-[(2,5-dioxo-1-{3-oxo-3-[(2-{ω-methoxy-poly-oxyethylen[40 kDa]}ethyl)amino]propyl}pyrrolidin-3-yl)sulfanyl]-1-oxopropan-2-yl}amino)-4-oxobutyl]carbamoyl}-L-tyrosyl-adrenomedullin(2-52)	33
O-{[(4S)-4-Amino-5-({(2R)-1-amino-3-[(2,5-dioxo-1-{3-oxo-3-[(2-{ω-methoxy-poly-oxyethylen[40 kDa]}ethyl)amino]propyl}pyrrolidin-3-yl)sulfanyl]-1-oxopropan-2-yl}amino)-5-oxopentyl]carbamoyl}-L-tyrosyl-adrenomedullin(2-52)	17
